Results are given in words; binding and its absence hold for the method and conditions named. In cells and extracts the contact can be indirect. Binding can be weak; no strength is given. Where a sequence is shown, tags or fusion partners need not be part of it.
Biological target: KVβ1.2 subunit (UniProt Q14722)
Assay: co-IP

B1: Lgi4, FLAG-tagged (protein, UniProt Q8N135-1 20-537)
chain: WRPPKGKCPLRCSCSKDSALCEGSPDLPVSFSPTLLSLSLVRTGVTQLKAGSFLRIPSLHLLLFTSNSFSVIEDDAFAGLSHLQYLFIEDNEIGSISKNALRGLRSLTHLSLANNHLETLPRFLFRGLDTLTHVDLRGNPFQCDCRVLWLLQWMPTVNASVGTGACAGPASLSHMQLHHLDPKTFKCRAIELSWFQTVGESALSVEPFSYQGEPHIVLAQPFAGRCLILSWDYSLQRFRPEEELPAASVVSCKPLVLGPSLFVLAARLWGGSQLWARPSPGLRLAPTQTLAPRRLLRPNDAELLWLEGQPCFVVADASKAGSTTLLCRDGPGFYPHQSLHAWHRDTDAEALELDGRPHLLLASASQRPVLFHWTGGRFERRTDIPEAEDVYATRHFQAGGDVFLCLTRYIGDSMVMRWDGSMFRLLQQLPSRGAHVFQPLLIARDQLAILGSDFAFSQVLRLEPDKGLLEPLQELGPPALVAPRAFAHITMAGRRFLFAACFKGPTQIYQHHEIDLSA
- binding: binds
